Data: publication PMC7000731
No constants are given. Whether binding was seen depends on the method and setting. In cells and extracts the contact can be indirect. Some entries that bind do so weakly or less than the wild type.

Amino acid sequences for entries named in this document (tags omitted). Residues count along the entry.
UniProt P27773, residues 25-505: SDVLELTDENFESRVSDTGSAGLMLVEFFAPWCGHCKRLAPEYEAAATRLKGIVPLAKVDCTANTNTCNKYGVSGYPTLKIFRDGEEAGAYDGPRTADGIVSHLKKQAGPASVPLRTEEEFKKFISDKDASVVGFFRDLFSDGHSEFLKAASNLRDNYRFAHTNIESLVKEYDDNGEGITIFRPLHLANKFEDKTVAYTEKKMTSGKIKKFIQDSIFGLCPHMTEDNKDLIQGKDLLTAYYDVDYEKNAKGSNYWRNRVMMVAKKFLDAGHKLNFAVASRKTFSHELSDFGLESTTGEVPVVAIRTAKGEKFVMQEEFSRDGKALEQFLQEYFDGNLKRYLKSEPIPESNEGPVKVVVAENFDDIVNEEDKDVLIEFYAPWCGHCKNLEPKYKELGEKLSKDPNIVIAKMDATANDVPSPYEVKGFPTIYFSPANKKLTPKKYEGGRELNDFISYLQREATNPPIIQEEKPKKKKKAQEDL

Target: PDIA3 (mouse (endogenous in mouse gastrocnemius muscle or C2C12 cells)) (UniProt P27773)
Experiment: co-IP; total proteins of the lysate immunoprecipitated with an anti-PDIA3 antibody, immunoblotted with an anti-β3 integrin antibody; lysates of gastrocnemius 7 days after CTX injury or of differentiated myoblasts; n = 4

B1: β3 integrin (receptor, UniProt O54890 26-787)
chain: ESNICTTRGVNSCQQCLAVSPVCAWCSDETLSQGSPRCNLKENLLKDNCAPESIEFPVSEAQILEARPLSSKGSGSSAQITQVSPQRIALRLRPDDSKIFSLQVRQVEDYPVDIYYLMDLSFSMKDDLSSIQTLGTKLASQMRKLTSNLRIGFGAFVDKPVSPYMYISPPQAIKNPCYNMKNACLPMFGYKHVLTLTDQVSRFNEEVKKQSVSRNRDAPEGGFDAIMQATVCDEKIGWRNDASHLLVFTTDAKTHIALDGRLAGIVLPNDGHCHIGTDNHYSASTTMDYPSLGLMTEKLSQKNINLIFAVTENVVSLYQNYSELIPGTTVGVLSDDSSNVLQLIVDAYGKIRSKVELEVRDLPEELSLSFNATCLNNEVIPGLKSCVGLKIGDTVSFSIEAKVRGCPQEKEQSFTIKPVGFKDSLTVQVTFDCDCACQAFAQPSSPRCNNGNGTFECGVCRCDQGWLGSMCECSEEDYRPSQQEECSPKEGQPICSQRGECLCGQCVCHSSDFGKITGKYCECDDFSCVRYKGEMCSGHGQCNCGDCVCDSDWTGYYCNCTTRTDTCMSTNGLLCSGRGNCECGSCVCVQPGSYGDTCEKCPTCPDACSFKKECVECKKFNRGTLHEENTCSRYCRDDIEQVKELTDTGKNAVNCTYKNEDDCVVRFQYYEDTSGRAVLYVVEEPECPKGPDILVVLLSVMGAILLIGLATLLIWKLLITIHDRKEFAKFEEERARAKWDTANNPLYKEATSTFTNITYRGT
binding: binds
